Data taken from article PMC7819943, “Rice protein-binding microarrays: a tool to detect cis-acting elements near promoter regions in rice”.
Some of the results follow.

The sequences below were run against T1, OsSMF1 (Oryza sativa, UniProt Q6ZLB0 1-436) (assay: protein-binding microarray (RPBM); PBS, 2% BSA, 51.3 ng/ul salmon testes DNA, 50 uM zinc acetate, 200 nM TF, 25 C, 1 h; high values mean tight binding). Conditions: protein: recombinant; tags: N-terminal polyhistidine and DsRed monomer fusion (pET32a); chain copies: 2; label: CyDye5-dUTP incorporated in the synthesized complementary strand; 3' TTTTT single-stranded linker to array surface; dsDNA, one strand shown.
T1 sequence: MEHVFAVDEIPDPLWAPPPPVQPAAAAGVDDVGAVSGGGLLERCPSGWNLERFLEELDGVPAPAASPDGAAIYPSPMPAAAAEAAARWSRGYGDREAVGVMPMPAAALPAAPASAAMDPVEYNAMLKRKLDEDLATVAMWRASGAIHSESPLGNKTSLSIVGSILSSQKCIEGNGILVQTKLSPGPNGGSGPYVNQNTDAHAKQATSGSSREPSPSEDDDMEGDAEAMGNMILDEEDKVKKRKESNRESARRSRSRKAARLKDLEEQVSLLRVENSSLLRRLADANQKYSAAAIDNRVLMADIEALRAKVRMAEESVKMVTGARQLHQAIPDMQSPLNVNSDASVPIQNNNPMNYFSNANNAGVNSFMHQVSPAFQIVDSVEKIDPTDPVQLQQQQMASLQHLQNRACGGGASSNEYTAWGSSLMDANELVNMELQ
How it was run: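 The binding signal is fluorescence intensity per array feature (arbitrary units). Readings came from an Axon 4000B scanner after a washed, 2% BSA-blocked, double-stranded custom Agilent array had been incubated for 1 h at 25 °C with 200 nM protein and 50 µM zinc acetate. The protein was a Ni–NTA-purified transcription factor fused N-terminally to polyhistidine and DsRed, expressed in E. coli BL21-CodonPlus.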
With “TTTTAGGTAGAATGGTCCTGTTGGATCATCATATCAATGACGGAGTCACCTAGTGCAG” the binding signal was 43400 fluorescence intensity (a.u.).
With “GTGTGATTATAACTACACATCAGCTTGCTGGCCAGCCTCTCGGAGTCACCTAGTGCAG” the binding signal was 6590 fluorescence intensity (a.u.).
In the case of “TGCGCCCCAGATACAAAGTCGCCAACGCGCAATTTATTTACGGAGTCACCTAGTGCAG”, the binding signal is reported as 36400 fluorescence intensity (a.u.).
“GTAGTATGTTATTGTACGTGGATATTTTATAGAGATGCTACGGAGTCACCTAGTGCAG” was tested, and the binding signal was 3400 fluorescence intensity (a.u.).
With “GACCAAATCGAATTATGCATCCACTATAAATATAGGAGTTCGGAGTCACCTAGTGCAG” the binding signal was 3690 fluorescence intensity (a.u.).
“AGTGTCGTTGTCACGTCTACCGTGAGCGCGGAACTACCCTCGGAGTCACCTAGTGCAG” was tested, and the binding signal was 3610 fluorescence intensity (a.u.).
In the case of “GTGGCCGTGGTAGGGAGAGGTGGTGGTGCGCGCGCGGTAACGGAGTCACCTAGTGCAG”, the binding signal is reported as 3440 fluorescence intensity (a.u.).
For “GATTGGAATAAGTGGTGACAGCACATTATTACCAACTTTTCGGAGTCACCTAGTGCAG”, the binding signal was 4440 fluorescence intensity (a.u.).
In the case of “GCCCAGCTTGTATATAATGGCACGCATTCCTCTGCACCTCCGGAGTCACCTAGTGCAG”, the binding signal is reported as 3900 fluorescence intensity (a.u.).
In the case of “TTCACCATCGAGCTCATGGTTTGGACGTTTGGTCACCACCCGGAGTCACCTAGTGCAG”, the binding signal is reported as 3180 fluorescence intensity (a.u.).
“TATCAAAATCCACTGCAACATTTAATACATACATAGTGAACGGAGTCACCTAGTGCAG” was tested, and the binding signal was 21300 fluorescence intensity (a.u.).
“CACCGATTTCATCGTGCCGTGACTCACATGCCGCGCCGACCGGAGTCACCTAGTGCAG” was tested, and the binding signal was 8120 fluorescence intensity (a.u.).
In the case of “GGGTGAGTGTGTGTTGTGCGTTGTGAGTGTGTATGTGTTTCGGAGTCACCTAGTGCAG”, the binding signal is reported as 3730 fluorescence intensity (a.u.).
“ACTAGTCCATGTAAACACAACAAATAGGTGATGTCATGGACGGAGTCACCTAGTGCAG” was tested, and the binding signal was 4800 fluorescence intensity (a.u.).
In the case of “TTTACCCCTACCCCACATGTCAGTGACAGAGTCTGCGGGGCGGAGTCACCTAGTGCAG”, the binding signal is reported as 3170 fluorescence intensity (a.u.).
“CACACCGCTCCACTCCGCCGCTGCCCTGCTCCACTCCGTCCGGAGTCACCTAGTGCAG” was tested, and the binding signal was 20900 fluorescence intensity (a.u.).
“GTGTGTGGTAAGAACAGTGTATGTCTCCATCAGGCCATAGCGGAGTCACCTAGTGCAG” was tested, and the binding signal was 3440 fluorescence intensity (a.u.).
With “ACCCGCCAACATCCTGGATAATCCACGATGACTAGGACACCGGAGTCACCTAGTGCAG” the binding signal was 6250 fluorescence intensity (a.u.).
“CTTGGTGGCCTATTCTGATGTGGACTGGGCTGGCTGTCCACGGAGTCACCTAGTGCAG” was tested, and the binding signal was 5160 fluorescence intensity (a.u.).
In the case of “ATGAATACGATGATGATGACGATGTTGGGTACACCCGGCACGGAGTCACCTAGTGCAG”, the binding signal is reported as 5650 fluorescence intensity (a.u.).
With “TCGATCTGCGTCCAGCAAGCAGACACACGTAACCAACTGCCGGAGTCACCTAGTGCAG” the binding signal was 3530 fluorescence intensity (a.u.).
For “GTTTAGTTAATGTGAAATTCACCATGAGAATTCGCTTGGACGGAGTCACCTAGTGCAG”, the binding signal was 12300 fluorescence intensity (a.u.).
“ACTTTTATACACGTAAGCGCCACGTCAGCTCCACATGGAACGGAGTCACCTAGTGCAG” was tested, and the binding signal was 31800 fluorescence intensity (a.u.).
“GTGTCTGCCTCCGCGTCCGCTTCGTCACGGCGGTGTCGGTCGGAGTCACCTAGTGCAG” was tested, and the binding signal was 5900 fluorescence intensity (a.u.).
With “TTTTGCTATATCAATATGAATCTCCGCACTATCTTGGGTGCGGAGTCACCTAGTGCAG” the binding signal was 3630 fluorescence intensity (a.u.).
“AGAAGGGGCGGCATGGTACCAATGACCAACAAAGAGGTAACGGAGTCACCTAGTGCAG” was tested, and the binding signal was 5370 fluorescence intensity (a.u.).
With “TTTAGTAGTTTGAAAAGCATACGCGCGGAAACCGAGCAAGCGGAGTCACCTAGTGCAG” the binding signal was 3190 fluorescence intensity (a.u.).
With “ATTTATACATCTCTTTCAAATTACGTGGGCACACTGTCTCCGGAGTCACCTAGTGCAG” the binding signal was 5400 fluorescence intensity (a.u.).
For “CGACCGCCGTCAGCGCCGATGAGCCACGATCGCCCTCTACCGGAGTCACCTAGTGCAG”, the binding signal was 3420 fluorescence intensity (a.u.).
For “ACGGTAGCCGGCGGCGGTGCCATGTAGGATAAAGACCAGGCGGAGTCACCTAGTGCAG”, the binding signal was 3570 fluorescence intensity (a.u.).
With “CTCTCGAACACGTGGCTTTGTCTCATCTCTTAGATCTTCACGGAGTCACCTAGTGCAG” the binding signal was 9730 fluorescence intensity (a.u.).
With “GTTGGGGAGCGGGGTGTGTGTGCCAGGCGCTCGGGCGGGGCGGAGTCACCTAGTGCAG” the binding signal was 5050 fluorescence intensity (a.u.).
In the case of “ACTGAGCAGAACGAATGAAGCCGCCGCAGCGTCGGTGCGACGGAGTCACCTAGTGCAG”, the binding signal is reported as 30200 fluorescence intensity (a.u.).
“GGAAAACCAAAAGACCGGTAGGTAGACCCCACCTGTCAGTCGGAGTCACCTAGTGCAG” was tested, and the binding signal was 3180 fluorescence intensity (a.u.).
With “GGCCCAACTTGATTTGGGCCCACACGTCGGTGACAATCTCCGGAGTCACCTAGTGCAG” the binding signal was 4500 fluorescence intensity (a.u.).
For “TGATACACGTGTAGCCCCTACACACCATGTTTGTGGTTCCCGGAGTCACCTAGTGCAG”, the binding signal was 5860 fluorescence intensity (a.u.).
In the case of “GAAGCCACCAATGAAAGATGGCCTTTTGGGCCTTGGGCCTCGGAGTCACCTAGTGCAG”, the binding signal is reported as 7710 fluorescence intensity (a.u.).
“TCACTTGAAAGCTAATGAGTCATGGTGAATATACAACTGCCGGAGTCACCTAGTGCAG” was tested, and the binding signal was 5570 fluorescence intensity (a.u.).
With “GGTGGAGGAGGAGGATGAGTTTGGGGAGTGTAATATCTGCCGGAGTCACCTAGTGCAG” the binding signal was 3240 fluorescence intensity (a.u.).
With “GGCGGTTTTGGATGACGTGGTGCCTACGTGGCTAATTTGACGGAGTCACCTAGTGCAG” the binding signal was 35600 fluorescence intensity (a.u.).
In the case of “GATTGGAGCACGAAATACTATTGCTTAATTCTTCTGAAGACGGAGTCACCTAGTGCAG”, the binding signal is reported as 3510 fluorescence intensity (a.u.).
“ACACTGGCAAATGGCACGTGGCGTTGTGGCAGTGACTGAGCGGAGTCACCTAGTGCAG” was tested, and the binding signal was 6440 fluorescence intensity (a.u.).
